Results are given in words; binding and its absence hold for the method and conditions named. Binding seen in cells or lysates may run through a third protein. Some binding calls cover weakened binding; strength is not graded here. For part of these data: Where a sequence is shown, tags or fusion partners need not be part of it.

Sequences of proteins named here, by UniProt entry; tags and fusion partners are left off.
UniProt P45973: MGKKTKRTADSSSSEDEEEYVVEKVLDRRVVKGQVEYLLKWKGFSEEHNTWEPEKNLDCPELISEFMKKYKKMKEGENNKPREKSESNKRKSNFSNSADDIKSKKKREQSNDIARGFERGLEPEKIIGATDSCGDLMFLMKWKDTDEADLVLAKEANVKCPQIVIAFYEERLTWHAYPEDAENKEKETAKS
UniProt Q9BWN1: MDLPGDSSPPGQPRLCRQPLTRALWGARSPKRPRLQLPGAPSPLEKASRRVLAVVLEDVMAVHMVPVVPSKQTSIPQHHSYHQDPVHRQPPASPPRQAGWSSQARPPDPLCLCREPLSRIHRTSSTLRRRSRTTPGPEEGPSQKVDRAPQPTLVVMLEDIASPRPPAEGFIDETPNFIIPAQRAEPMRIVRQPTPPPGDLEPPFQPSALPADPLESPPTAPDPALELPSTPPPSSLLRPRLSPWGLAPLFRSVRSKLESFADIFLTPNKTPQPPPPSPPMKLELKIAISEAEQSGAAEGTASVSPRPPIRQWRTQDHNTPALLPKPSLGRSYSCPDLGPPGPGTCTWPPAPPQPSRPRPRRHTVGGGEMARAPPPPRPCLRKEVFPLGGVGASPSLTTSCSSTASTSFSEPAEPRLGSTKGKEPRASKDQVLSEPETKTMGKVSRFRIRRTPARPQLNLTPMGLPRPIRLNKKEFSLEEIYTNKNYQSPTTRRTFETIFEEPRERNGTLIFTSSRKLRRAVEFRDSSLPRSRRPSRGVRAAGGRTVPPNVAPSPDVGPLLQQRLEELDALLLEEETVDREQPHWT

Holding throughout (assay): co-IP; HEK293T cells 48 h after transfection, lysed in RIPA buffer (25 mM Tris-HCl pH 7.6, 150 mM NaCl, 1% NP-40, 1% sodium deoxycholate, 0.1% SDS); precipitated with Anti-FLAG M2 magnetic beads; immunoblot
(In general: A western blot detects proteins with antibodies after separation by electrophoresis.)

One test deals with Flag-tagged HP1α (UniProt P45973).
A further test has as its target T1, Flag-MDM4 (UniProt O15151).
T1 sequence: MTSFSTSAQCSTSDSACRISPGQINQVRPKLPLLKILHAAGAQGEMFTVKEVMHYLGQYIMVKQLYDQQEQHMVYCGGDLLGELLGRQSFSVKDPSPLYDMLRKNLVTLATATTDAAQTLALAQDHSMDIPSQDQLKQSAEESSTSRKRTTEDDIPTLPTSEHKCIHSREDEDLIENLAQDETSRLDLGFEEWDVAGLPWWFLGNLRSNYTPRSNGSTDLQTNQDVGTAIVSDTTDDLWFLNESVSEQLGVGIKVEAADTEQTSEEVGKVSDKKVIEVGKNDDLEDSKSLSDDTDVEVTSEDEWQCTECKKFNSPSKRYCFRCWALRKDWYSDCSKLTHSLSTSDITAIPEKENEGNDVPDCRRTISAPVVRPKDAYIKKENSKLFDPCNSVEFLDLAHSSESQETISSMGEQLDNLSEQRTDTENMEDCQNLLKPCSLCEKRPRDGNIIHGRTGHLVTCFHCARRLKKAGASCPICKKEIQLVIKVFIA

Test [1] has as its target Flag-tagged full-length PRR14 (proline rich 14) (human) (UniProt Q9BWN1).

As to GFP-PRR14 (from UniProt Q9BWN1 1-585), the binding result in the test with Flag-tagged HP1α is “binds”.

Turning to “heterochromatin protein 1 alpha (HP1α) (from UniProt P45973 1-191)”, the binding result in the test with Flag-MDM4 is “no binding”; in test [1], “binds”.
